Results are given in words; binding and its absence hold for the method and conditions named. In cells and extracts the contact can be indirect. A yes stands for co-enrichment or nearness to the bait. Other partners may have been found.
T1: Csl4-TAP (S. cerevisiae) (UniProt P53859)
T1 sequence: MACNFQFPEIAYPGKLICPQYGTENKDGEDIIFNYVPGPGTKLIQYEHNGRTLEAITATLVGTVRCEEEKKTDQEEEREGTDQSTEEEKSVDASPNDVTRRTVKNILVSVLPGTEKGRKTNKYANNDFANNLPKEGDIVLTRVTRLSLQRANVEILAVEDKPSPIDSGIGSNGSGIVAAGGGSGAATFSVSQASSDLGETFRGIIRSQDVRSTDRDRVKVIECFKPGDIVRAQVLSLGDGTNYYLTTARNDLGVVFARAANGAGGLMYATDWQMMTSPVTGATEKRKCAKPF


The binders below were run against T1, Csl4-TAP (S. cerevisiae) (assay: affinity purification with mass spectrometry; two-step TAP purification of Csl4-TAP (IgG sepharose, TEV elution, calmodulin sepharose, EGTA elution) from lysates of mitotic (YPD) and meiotic (six hours in SPO) SK1 cells; two protocols (IP method 1: 10 mM Tris pH 7.5, 120 mM NaCl, 5 mM MgCl2, 0.1% NP-40 washes; IP method 2: TMN150, 150 mM NaCl); untagged strains as controls; electrospray mass spectrometry).

Binder	binding
Pwp2 (protein, UniProt P25635 1-923) MKSDFKFSNLLGTVYRQGNITFSDDGKQLLSPVGNRVSVFDLINNKSFTFEYEHRKNIAAIDLNKQGTLLISIDEDGRAILVNFKARNVLHHFNFKEKCSAVKFSPDGRLFALASGRFLQIWKTPDVNKDRQFAPFVRHRVHAGHFQDITSLTWSQDSRFILTTSKDLSAKIWSVDSEEKNLAATTFNGHRDYVMGAFFSHDQEKIYTVSKDGAVFVWEFTKRPSDDDDNESEDDDKQEEVDISKYSWRITKKHFFYANQAKVKCVTFHPATRLLAVGFTSGEFRLYDLPDFTLIQQLSMGQNPVNTVSVNQTGEWLAFGSSKLGQLLVYEWQSESYILKQQGHFDSTNSLAYSPDGSRVVTASEDGKIKVWDITSGFCLATFEEHTSSVTAVQFAKRGQVMFSSSLDGTVRAWDLIRYRNFRTFTGTERIQFNCLAVDPSGEVVCAGSLDNFDIHVWSVQTGQLLDALSGHEGPVSCLSFSQENSVLASASWDKTIRIWSIFGRSQQVEPIEVYSDVLALSMRPDGKEVAVSTLKGQISIFNIEDAKQVGNIDCRKDIISGRFNQDRFTAKNSERSKFFTTIHYSFDGMAIVAGGNNNSICLYDVPNEVLLKRFIVSRNMALNGTLEFLNSKKMTEAGSLDLIDDAGENSDLEDRIDNSLPGSQRGGDLSTRKMRPEVRVTSVQFSPTANAFAAASTEGLLIYSTNDTILFDPFDLDVDVTPHSTVEALREKQFLNALVMAFRLNEEYLINKVYEAIPIKEIPLVASNIPAIYLPRILKFIGDFAIESQHIEFNLIWIKALLSASGGYINEHKYLFSTAMRSIQRFIVRVAKEVVNTTTDNKYTYRFLVSTDGSMEDGAADDDEVLLKDDADEDNEENEENDVVMESDDEEGWIGFNGKDNKLPLSNENDSSDEEENEKELP	binds weakly
Utp4 (protein, UniProt Q06679 1-776) MSSSLLSVLKEKSRSLKIRNKPVKMTSQERMIVHRCRFVDFTPATITSLAFSHKSNINKLTPSDLRLAIGRSNGNIEIWNPRNNWFQEMVIEGGKDRSIEGLCWSNVNGESLRLFSIGGSTVVTEWDLATGLPLRNYDCNSGVIWSISINDSQDKLSVGCDNGTVVLIDISGGPGVLEHDTILMRQEARVLTLAWKKDDFVIGGCSDGRIRIWSAQKNDENMGRLLHTMKVDKAKKESTLVWSVIYLPRTDQIASGDSTGSIKFWDFQFATLNQSFKAHDADVLCLTTDTDNNYVFSAGVDRKIFQFSQNTNKSQKNNRWVNSSNRLLHGNDIRAICAYQSKGADFLVSGGVEKTLVINSLTSFSNGNYRKMPTVEPYSKNVLVNKEQRLVVSWSESTVKIWTMGTDSSTEQNYKLVCKLTLKDDQNISTCSLSPDGQVLVVGRPSTTKVFHLQPVGNKLKVTKLDNDLLLRTSTKLVKFIDNSKIVICSCEDDVFIVDLESEEDEKPQEVELLEVTSTKSSIKVPYINRINHLEVDQNIAVISRGCGVVDILDLKARISKPLARLNNFITAVHINTSRKSVVVITADNKIYEFNMNLNSEAENEDSESVLTQWSKNNTDNLPKEWKTLKENCVGIFSDIENSSRLWFWGATWISRIDFDVDFPINKRRKQKKRTHEGLTITDESNFMNDEEDDEDDDIDMEISENLNVLLNQGNKIKSTDVQRNEESSGHFFFTDKYKPLLFVDLISSNELAIIERNPLTFHSKQKAFIQPKLVF	binds weakly
Rrp44 (protein, UniProt Q08162 1-1001) MSVPAIAPRRKRLADGLSVTQKVFVRSRNGGATKIVREHYLRSDIPCLSRSCTKCPQIVVPDAQNELPKFILSDSPLELSAPIGKHYVVLDTNVVLQAIDLLENPNCFFDVIVPQIVLDEVRNKSYPVYTRLRTLCRDSDDHKRFIVFHNEFSEHTFVERLPNETINDRNDRAIRKTCQWYSEHLKPYDINVVLVTNDRLNREAATKEVESNIITKSLVQYIELLPNADDIRDSIPQMDSFDKDLERDTFSDFTFPEYYSTARVMGGLKNGVLYQGNIQISEYNFLEGSVSLPRFSKPVLIVGQKNLNRAFNGDQVIVELLPQSEWKAPSSIVLDSEHFDVNDNPDIEAGDDDDNNESSSNTTVISDKQRRLLAKDAMIAQRSKKIQPTAKVVYIQRRSWRQYVGQLAPSSVDPQSSSTQNVFVILMDKCLPKVRIRTRRAAELLDKRIVISIDSWPTTHKYPLGHFVRDLGTIESAQAETEALLLEHDVEYRPFSKKVLECLPAEGHDWKAPTKLDDPEAVSKDPLLTKRKDLRDKLICSIDPPGCVDIDDALHAKKLPNGNWEVGVHIADVTHFVKPGTALDAEGAARGTSVYLVDKRIDMLPMLLGTDLCSLKPYVDRFAFSVIWELDDSANIVNVNFMKSVIRSREAFSYEQAQLRIDDKTQNDELTMGMRALLKLSVKLKQKRLEAGALNLASPEVKVHMDSETSDPNEVEIKKLLATNSLVEEFMLLANISVARKIYDAFPQTAMLRRHAAPPSTNFEILNEMLNTRKNMSISLESSKALADSLDRCVDPEDPYFNTLVRIMSTRCMMAAQYFYSGAYSYPDFRHYGLAVDIYTHFTSPIRRYCDVVAHRQLAGAIGYEPLSLTHRDKNKMDMICRNINRKHRNAQFAGRASIEYYVGQVMRNNESTETGYVIKVFNNGIVVLVPKFGVEGLIRLDNLTEDPNSAAFDEVEYKLTFVPTNSDKPRDVYVFDKVEVQVRSVMDPITSKRKAELLLK	binds
Rps7A (protein, UniProt P26786 1-190) MSAPQAKILSQAPTELELQVAQAFVELENSSPELKAELRPLQFKSIREIDVAGGKKALAIFVPVPSLAGFHKVQTKLTRELEKKFQDRHVIFLAERRILPKPSRTSRQVQKRPRSRTLTAVHDKILEDLVFPTEIVGKRVRYLVGGNKIQKVLLDSKDVQQIDYKLESFQAVYNKLTGKQIVFEIPSETH	binds weakly

Continued, values first:

binding	Binder
binds weakly	Utp13 (protein, UniProt Q05946 1-817) MDLKTSYKGISLNPIYAGSSAVATVSENGKILATPVLDEINIIDLTPGSRKILHKISNEDEQEITALKLTPDGQYLTYVSQAQLLKIFHLKTGKVVRSMKISSPSYILDADSTSTLLAVGGTDGSIIVVDIENGYITHSFKGHGGTISSLKFYGQLNSKIWLLASGDTNGMVKVWDLVKRKCLHTLQEHTSAVRGLDIIEVPDNDEPSLNLLSGGRDDIINLWDFNMKKKCKLLKTLPVNQQVESCGFLKDGDGKRIIYTAGGDAIFQLIDSESGSVLKRTNKPIEELFIIGVLPILSNSQMFLVLSDQTLQLINVEEDLKNDEDTIQVTSSIAGNHGIIADMRYVGPELNKLALATNSPSLRIIPVPDLSGPEASLPLDVEIYEGHEDLLNSLDATEDGLWIATASKDNTAIVWRYNENSCKFDIYAKYIGHSAAVTAVGLPNIVSKGYPEFLLTASNDLTIKKWIIPKPTASMDVQIIKVSEYTRHAHEKDINALSVSPNDSIFATASYDKTCKIWNLENGELEATLANHKRGLWDVSFCQYDKLLATSSGDKTVKIWSLDTFSVMKTLEGHTNAVQRCSFINKQKQLISCGADGLIKIWDCSSGECLKTLDGHNNRLWALSTMNDGDMIVSADADGVFQFWKDCTEQEIEEEQEKAKLQVEQEQSLQNYMSKGDWTNAFLLAMTLDHPMRLFNVLKRALGESRSRQDTEEGKIEVIFNEELDQAISILNDEQLILLMKRCRDWNTNAKTHTIAQRTIRCILMHHNIAKLSEIPGMVKIVDAIIPYTQRHFTRVDNLVEQSYILDYALVEMDKLF
binds weakly	Utp5 (protein, UniProt Q04177 1-643) MDSPVLQSAYDPSGQYLCYVTVALDKQRVGVQPTQRATSSGVDTVWNENFLYLEDSKLKVTCLKWVNLASSDTVAIILGMNNGEIWLYSVLANEVTYKFTTGNSYEIKDIDLMGNQLWCIDSSDAFYQFDLLQFKLLQHFRINNCVQLNKLTIVPAGDSVAQLLVASHSISLIDIEEKKVVMTFPGHVSPVSTLQVITNEFFISGAEGDRFLNVYDIHSGMTKCVLVAESDIKELSHSGQADSIAVTTEDGSLEIFVDPLVSSSTKKRGNKSKKSSKKIQIVSKDGRKVPIYNAFINKDLLNVSWLQNATMPYFKNLQWREIPNEYTVEISLNWNNKNKSADRDLHGKDLASATNYVEGNARVTSGDNFKHVDDAIKSWERELTSLEQEQAKPPQANELLTETFGDKLESSTVARISGKKTNLKGSNLKTATTTGTVTVILSQALQSNDHSLLETVLNNRDERVIRDTIFRLKPALAVILLERLAERIARQTHRQGPLNVWVKWCLIIHGGYLVSIPNLMSTLSSLHSTLKRRSDLLPRLLALDARLDCTINKFKTLNYEAGDIHSSEPVVEEDEDDVEYNEELDDAGLIEDGEESYGSEEEEEGDSDNEEEQKHTSSKQDGRLETEQSDGEEEAGYSDVEME

From paper PMC4161446
